The source of these data is US8058243B2, “Method for treating a brain cancer with ifenprodil” (HSC Research and Development Limited Partnership, priority 2006, dated 2011).

The subject of this assay is murine neural precursor cells (neurosphere cultures). Put plainly: HTS of LOPAC library against secondary neurosphere cultures, MTT proliferation assay at 3 μM, day 7 (z score, P value). The format is cell-based, mouse. (In general: Tetrazolium assays rely on reduction of a dye to a coloured formazan, in cell work by metabolically active cells.)
[1] abbreviates: yes/no: significantly inhibited neurosphere proliferation (P<0.01) in primary screen.

Each structure is given as a SMILES string. Where a name gives a salt, the structure may show the parent alone. Read-outs that look alike come from different tables or passages of the source.

As for `CN(C)CCN(Cc1cccs1)c1ccccn1` [Methapyrilene hydrochloride], the Activity entry is “no”.

As for `CN1CCC[C@@H]1CCO[C@](C)(c1ccccc1)c1ccc(Cl)cc1` [Clemastine fumarate], under setting [1], the Activity result is “no”.

As for `Br.CN1[C@@H]2CC[C@H]1C[C@@H](OC(=O)C(O)c1ccccc1)C2` (mixture of isomers) [DL-Homatropine hydrobromide], the Activity result is listed as “no” and the “Z Score” value turned out to be 0.744. Where the note is “LOPAC primary screen, neurosphere MTT proliferation, 3 μM, day 7”, this compound gave a Z score of 0.744.

Regarding `Cc1ccccc1C(OCCN(C)C)c1ccccc1` (stereo not shown) [Orphenadrine hydrochloride], the Activity entry (yes/no: significantly inhibited neurosphere proliferation (P<0.01) in the primary screen) was “no”.

As for `CCCN1CCCC2Cc3[nH]ncc3CC21.Cl.Cl` (stereo not shown) [(B1)-Quinpirole dihydrochloride], the “Z Score” value is on record as −0.4513.

In the case of `COc1ccc(-n2nc(C(F)(F)F)cc2-c2ccc(Cl)cc2)cc1` [SC-560], the Activity result is recorded as “no”.

Take `C(=C\c1ccccc1)/CN1CCN(C(c2ccccc2)c2ccccc2)CC1` [Cinnarizine]: the Activity entry under setting [1] was “no”.

Compound `CCCN1CCC[C@@H]2Cc3[nH]ncc3C[C@H]21.Cl.Cl` (racemic) [(±)-Quinpirole dihydrochloride] had a Z score of −0.451.

Take `CCN(CC)CCOC(=O)C1(C2CCCCC2)CCCCC1` [Dicyclomine hydrochloride]: the Activity entry under setting [1] is “no”.

Regarding `CCN(CC)C(=O)NC1C=C2c3cccc4[nH]cc(c34)C[C@H]2N(C)C1.O=C(O)/C=C\C(=O)O` (stereo partly drawn) [R(+)-Lisuride hydrogen maleate], the Activity result is listed as “no”.

Take `O=C1NC(=O)C(c2ccccc2[N+](=O)[O-])=C1Nc1ccc(O)c(Cl)c1` [SB 415286]: the Activity result is reported as “yes”.
